In publication PMC5038147 one finds binding data, which are given here for two molecules.

The chains behind the UniProt entries cited, without tags or fusion partners.
UniProt Q9UGP4: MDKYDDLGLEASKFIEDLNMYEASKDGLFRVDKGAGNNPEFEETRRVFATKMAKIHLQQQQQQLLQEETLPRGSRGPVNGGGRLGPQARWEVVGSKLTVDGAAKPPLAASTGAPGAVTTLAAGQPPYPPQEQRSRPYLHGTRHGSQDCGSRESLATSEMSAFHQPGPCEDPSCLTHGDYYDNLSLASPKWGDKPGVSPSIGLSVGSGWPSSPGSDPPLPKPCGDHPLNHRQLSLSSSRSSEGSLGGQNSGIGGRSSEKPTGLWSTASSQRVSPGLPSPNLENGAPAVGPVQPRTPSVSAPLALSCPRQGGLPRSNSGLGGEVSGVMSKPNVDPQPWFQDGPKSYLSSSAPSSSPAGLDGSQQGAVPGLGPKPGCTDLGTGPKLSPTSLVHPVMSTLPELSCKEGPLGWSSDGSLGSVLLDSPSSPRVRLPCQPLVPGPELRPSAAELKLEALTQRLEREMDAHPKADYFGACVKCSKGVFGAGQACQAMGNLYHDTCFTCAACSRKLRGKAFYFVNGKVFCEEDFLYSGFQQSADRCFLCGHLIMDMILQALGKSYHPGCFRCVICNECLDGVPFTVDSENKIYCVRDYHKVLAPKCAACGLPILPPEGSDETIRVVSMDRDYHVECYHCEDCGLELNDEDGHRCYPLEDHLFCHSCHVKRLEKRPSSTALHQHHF
UniProt P46937: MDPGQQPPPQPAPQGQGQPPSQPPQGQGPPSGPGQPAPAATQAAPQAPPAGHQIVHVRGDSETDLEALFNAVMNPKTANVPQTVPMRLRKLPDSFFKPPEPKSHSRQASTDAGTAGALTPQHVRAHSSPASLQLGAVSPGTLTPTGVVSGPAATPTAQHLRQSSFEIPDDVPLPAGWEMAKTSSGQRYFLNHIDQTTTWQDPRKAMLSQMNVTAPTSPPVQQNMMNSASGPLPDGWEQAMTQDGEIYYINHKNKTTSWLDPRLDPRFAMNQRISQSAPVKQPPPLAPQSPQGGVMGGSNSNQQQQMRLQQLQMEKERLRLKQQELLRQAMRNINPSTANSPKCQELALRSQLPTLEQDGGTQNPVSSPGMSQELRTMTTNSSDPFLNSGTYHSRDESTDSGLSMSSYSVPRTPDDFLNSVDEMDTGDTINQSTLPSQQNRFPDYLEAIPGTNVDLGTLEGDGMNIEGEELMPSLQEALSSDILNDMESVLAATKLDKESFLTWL

Assay [1] addresses human LIMD1 (wild type, transfected) (human) (UniProt Q9UGP4). The assay is described as follows: co-IP; HEK293T cells transfected with LIMD1 (wild type or LIM domain deletion mutant) and one individual Hippo component or YAP; LIMD1 immunoprecipitated, bound products Western blotted; IP buffer 10 mM HEPES pH 7.4, 150 mM NaCl, 10% glycerol, 1% NP-40 or CHAPS, 4°C. A general note: Immunoblotting shows a protein as a band on a membrane.

In assay [2] the target is T1, LATS2 (epitope-tagged, transfected) (UniProt Q9NRM7).
T1 sequence: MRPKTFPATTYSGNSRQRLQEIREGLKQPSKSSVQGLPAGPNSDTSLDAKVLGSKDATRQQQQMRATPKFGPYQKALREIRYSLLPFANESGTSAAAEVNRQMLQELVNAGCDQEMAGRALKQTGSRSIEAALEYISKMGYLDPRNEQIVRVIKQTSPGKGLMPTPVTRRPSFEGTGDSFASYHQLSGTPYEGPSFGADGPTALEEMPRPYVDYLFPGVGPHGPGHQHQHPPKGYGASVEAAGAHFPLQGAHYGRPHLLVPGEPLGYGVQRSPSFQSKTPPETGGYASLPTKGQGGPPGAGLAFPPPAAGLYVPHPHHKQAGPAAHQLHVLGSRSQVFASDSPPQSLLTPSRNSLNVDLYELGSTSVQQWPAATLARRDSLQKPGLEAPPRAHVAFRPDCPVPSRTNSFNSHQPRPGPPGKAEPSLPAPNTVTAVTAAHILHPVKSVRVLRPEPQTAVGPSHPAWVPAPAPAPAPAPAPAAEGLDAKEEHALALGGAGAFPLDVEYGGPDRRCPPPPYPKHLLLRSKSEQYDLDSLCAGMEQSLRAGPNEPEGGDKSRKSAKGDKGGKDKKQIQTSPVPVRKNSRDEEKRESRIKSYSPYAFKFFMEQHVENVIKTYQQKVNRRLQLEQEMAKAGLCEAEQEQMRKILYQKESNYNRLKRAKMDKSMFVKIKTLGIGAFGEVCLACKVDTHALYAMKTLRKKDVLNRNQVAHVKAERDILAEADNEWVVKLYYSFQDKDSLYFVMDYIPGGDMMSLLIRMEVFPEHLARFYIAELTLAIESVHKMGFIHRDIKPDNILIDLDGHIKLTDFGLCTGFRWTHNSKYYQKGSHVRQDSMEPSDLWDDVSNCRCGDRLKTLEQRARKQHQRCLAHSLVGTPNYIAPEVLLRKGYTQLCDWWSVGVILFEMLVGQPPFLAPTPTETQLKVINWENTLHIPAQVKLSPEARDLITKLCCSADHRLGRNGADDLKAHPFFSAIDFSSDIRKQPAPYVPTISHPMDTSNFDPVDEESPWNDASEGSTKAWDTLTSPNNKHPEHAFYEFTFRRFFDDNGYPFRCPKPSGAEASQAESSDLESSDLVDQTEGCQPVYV
The assay is described as follows: co-IP; HEK293T cells transfected with epitope-tagged LATS2 and one other protein (MOB1A without or with increasing amounts of LIMD1; or YAP alone); LATS2 immunoprecipitated.

In assay [3] the target is T2, MST2 (epitope-tagged, transfected) (UniProt Q13188).
T2 sequence: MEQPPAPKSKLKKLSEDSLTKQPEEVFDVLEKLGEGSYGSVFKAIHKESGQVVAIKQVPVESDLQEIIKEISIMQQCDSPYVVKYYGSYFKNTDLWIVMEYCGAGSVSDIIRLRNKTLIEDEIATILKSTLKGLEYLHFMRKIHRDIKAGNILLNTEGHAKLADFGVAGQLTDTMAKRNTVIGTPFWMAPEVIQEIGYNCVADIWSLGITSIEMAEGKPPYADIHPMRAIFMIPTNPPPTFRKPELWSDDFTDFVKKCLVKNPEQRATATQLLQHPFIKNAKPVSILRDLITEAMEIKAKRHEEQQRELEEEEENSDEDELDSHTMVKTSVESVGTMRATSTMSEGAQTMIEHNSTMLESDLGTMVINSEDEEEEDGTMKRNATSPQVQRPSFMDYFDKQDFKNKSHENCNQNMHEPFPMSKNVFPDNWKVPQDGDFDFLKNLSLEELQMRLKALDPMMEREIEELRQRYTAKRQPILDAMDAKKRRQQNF
The assay is described as follows: co-IP; HEK293T cells transfected with all four epitope-tagged Hippo core kinase complex components (MST2, WW45, LATS2, wt MOB1A), with or without LIMD1 or hLIMD1 mutants, with or without YAP; MST2 immunoprecipitated.

Results are given in words; binding and its absence hold for the method and conditions named. Binding seen in cells or lysates may run through a third protein. Some entries that bind do so weakly or less than the wild type. Sequences can lack the tags named with a protein.

For “YAP (transfected) (from UniProt P46937 1-504)”, the binding entry in assay [1] is given as “no binding”.

B1: MOB1A (wild type, epitope-tagged, transfected) (protein, UniProt Q9H8S9 1-216)
chain: MSFLFSSRSSKTFKPKKNIPEGSHQYELLKHAEATLGSGNLRQAVMLPEGEDLNEWIAVNTVDFFNQINMLYGTITEFCTEASCPVMSAGPRYEYHWADGTNIKKPIKCSAPKYIDYLMTWVQDQLDDETLFPSKIGVPFPKNFMSVAKTILKRLFRVYAHIYHQHFDSVMQLQEEAHLNTSFKHFIFFVQEFNLIDRRELAPLQELIEKLGSKDR
For the molecule B1, the binding entry in assay [2] is reported as “binds”; in assay [3], “binds”; in assay [1], “no binding”.
